This test deals with Salmonella enterica serovar Typhimurium SL1344. The test can be described thus: bacterial growth OD600 after 18 h with compound and polymyxin B; higher = more bacterial growth (less inhibition). The note with it: 50 µM, Mueller-Hinton broth.

Structures are written as SMILES. This is one part of the list. These are raw signals, not scaled to a control.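 Primary screen: polymyxin B was added at a level permeabilizing Salmonella outer membranes while sparing inner membranes. DMSO wells, both with and without polymyxin B, established maximum growth. Plate-to-plate variation meant each plate was ranked on its own, and the lowest-OD600 compounds were selected as hits.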

`O=C(c1ccc(OC2CCN(Cc3ccccn3)CC2)cc1)N1CCCC1c1nccs1` (stereo unspecified): the “bacterial growth OD600” value (polymyxin B 1 µg/mL) worked out at 0.879.
As for `O=C(C1CCCN(C2CCN(Cc3ccccc3)CC2)C1)N1CCc2[nH]ncc2C1` (stereo unspecified), for the setting “polymyxin B 0.75 µg/mL”, the “bacterial growth OD600” value was determined as 0.936.
For the compound `NC(=O)C1CCCN(c2ccc(-c3nc(CCCc4ccccc4)no3)cn2)C1` (stereo unspecified), the “bacterial growth OD600” value (polymyxin B 0.75 µg/mL) turned out to be 0.662.
Regarding `COc1ccc(N2C(=O)CN(C(=O)c3cc(CC(C)C)n[nH]3)CC23CCCC3)cc1`, the “bacterial growth OD600” value (polymyxin B 0.75 µg/mL) worked out at 0.741.
For `C=CCC(O)(CC=C)C(C)NC(=O)Cn1cc(NC(=O)CCc2ccccc2OC)cn1` (stereo unspecified), the “bacterial growth OD600” value (polymyxin B 0.75 µg/mL) stood at 1.01.
Consider `CCc1csc(CNC(=O)c2ccc(NCC3CCCCO3)nc2)n1` (stereo unspecified), for which the “bacterial growth OD600” value (polymyxin B 1 µg/mL) was 0.845.
Still for that read-out and setting: with `COc1ccc(-c2n[nH]cc2CN2CCCCC2CCNC(C)=O)c(OC)c1` (stereo unspecified) the figure was 1.2.
For the compound `CN(C(=O)c1cc2ccccc2n1C)C1CCCN(Cc2ccccc2F)C1` (stereo unspecified), the “bacterial growth OD600” value (polymyxin B 1 µg/mL) was 0.649.
As to `CCOC(=O)CC1CCCCN1C(=O)c1cc(COc2ccc(OC)cc2Cl)on1` (stereo unspecified), the “bacterial growth OD600” value (polymyxin B 1 µg/mL) worked out at 0.736.
Take `O=C(Nc1cccs1)NC1CC(=O)N(C2CCCCCC2)C1` (stereo unspecified): the “bacterial growth OD600” value (polymyxin B 1 µg/mL) was found to be 1.18.
Same read-out and setting: with `O=C(c1ccccn1)C1CCCN(Cc2nc(Cc3cccc(C(F)(F)F)c3)no2)C1` (stereo unspecified) the figure was 0.831.
Turning to `CCS(=O)(=O)Nc1cccc(N2CCC(NC(C)c3ccccc3Cl)CC2)c1` (stereo unspecified), under “polymyxin B 0.75 µg/mL”, the “bacterial growth OD600” value is 0.734.
As for `O=C(NCC1(c2ccccc2)CCOCC1)C1CC12CCN(Cc1ccnc3ccccc13)CC2` (stereo unspecified), under “polymyxin B 0.75 µg/mL”, the “bacterial growth OD600” value was 0.815.
Regarding `CCNC(=O)c1sc2ncnc(NCCCOC)c2c1C`, for the setting “polymyxin B 0.75 µg/mL”, the “bacterial growth OD600” value worked out at 0.84.
`CN(C)S(=O)(=O)N1CCC2(CCCN(Cc3ccc(F)c(F)c3)C2=O)C1` (stereo unspecified): the “bacterial growth OD600” value (polymyxin B 1 µg/mL) stood at 1.14.
Take `O=C(NCCc1cccc(Cl)c1)C1CC(Cc2ccc3c(c2)OCO3)=NO1` (stereo unspecified): the “bacterial growth OD600” value (polymyxin B 0.75 µg/mL) worked out at 0.006.
As to `CCCS(=O)(=O)N1CCCC(CNC(=O)c2ccccc2Cl)C1` (stereo unspecified), where the note is “polymyxin B 0.75 µg/mL”, the “bacterial growth OD600” value turned out to be 0.825.
As for `CC(C)CCCC1CN(C(=O)CCc2ccc3c(c2)OCO3)CCO1` (stereo unspecified), the “bacterial growth OD600” value (polymyxin B 0.75 µg/mL) amounted to 0.183.
Turning to `COc1cccc(CC(C2CCN(C(=O)/C=C/c3ccccc3F)CC2)N(C)C(=O)CC(C)C)c1` (stereo unspecified), the “bacterial growth OD600” value (polymyxin B 0.75 µg/mL) was -0.001.
As to `O=C(CCC1CCN(C(=O)c2ccc3c(c2)OCCO3)CC1)NCc1cccnc1`, the “bacterial growth OD600” value (polymyxin B 1 µg/mL) came out at 0.905.
Take `Cc1ccsc1C(=O)N(C)C1CCCN(CCc2ccccc2)C1` (stereo unspecified): the “bacterial growth OD600” value (polymyxin B 0.75 µg/mL) was 0.815.
On to `Cc1cccc(CN2CCCC3(CCN(c4ccccn4)C3)C2=O)c1` (stereo unspecified), for which the “bacterial growth OD600” value (polymyxin B 1 µg/mL) was determined as 0.901.
Turning to `Cc1nonc1C1CCCN1C(=O)C1(N2CCCCC2)Cc2ccccc2C1` (stereo unspecified), the “bacterial growth OD600” value (polymyxin B 0.75 µg/mL) worked out at 0.014.
For the compound `Cc1ccc2c(c1)CN(Cc1ccccc1O)CC(c1ccsc1)O2` (stereo unspecified), the “bacterial growth OD600” value (polymyxin B 0.75 µg/mL) stood at 0.534.
Consider `COc1cccc(-c2nn(-c3ccccc3)cc2CN(C)Cc2nonc2C)c1`, for which the “bacterial growth OD600” value (polymyxin B 1 µg/mL) turned out to be 0.135.
In the case of `COCCn1c(-c2ccccn2)nc2cc(NC(C)=O)cc(C(=O)NCCc3ccc(F)cc3)c21`, where the note is “polymyxin B 0.75 µg/mL”, the “bacterial growth OD600” value amounted to 1.01.
Same read-out and setting: the same measure for `COCC1CCN(c2ccc(-c3nc(Cc4ccccc4)no3)cn2)CC1`: 0.004; for `COCCN(C)C(=O)c1cccc(-n2cc(NC(=O)Cc3cccc(C)c3)cn2)c1`: 0.924; for `CC(=O)c1cccc(CN2CCC(C(=O)Nc3cccc(-c4nnc(C)s4)c3)CC2)c1`: 0.728.
Turning to `CCCN1CCC(C(=O)Nc2ccc(-c3cccc(C)c3)cc2)CC1`, the “bacterial growth OD600” value (polymyxin B 1 µg/mL) stood at 0.451.
Take `CCN(C)C(=O)C1CCCN(C2CCN(c3nc4ccccc4o3)CC2)C1` (stereo unspecified): the “bacterial growth OD600” value (polymyxin B 0.75 µg/mL) worked out at 0.816.

The values are drawn from the supplement of paper PMC12889115.
